Values from PubChem BioAssay AID1224830 (NIAID, 2016)

- Aim: 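Host factors that control LPS-induced TNF expression in human macrophages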 (primary screen)
- Cells: human THP-1 monocytic leukaemia cells, TNF dual-luciferase reporter clone, PMA-differentiated to macrophage-like cells
- Reagent: siRNA pool against human genes, 50 nM
- Timing: LPS for 4 h, given about 3 days after siRNA transfection
- Challenge: bacterial LPS (TLR4 ligand), 10 ng/ml
- Measured: 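TNF firefly reporter luminescence divided by renilla, normalised to the plate median, then turned into a robust z-score for each replicate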
- Scale: TNF reporter robust z-score: higher = stronger TNF reporter response to LPS
- Hit rule: 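Each well counts as active if its z-score is over 2.8 or under -1.5; controls are left without a call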
Here is an unselected part of about 18,000 deposited reagents. Over the whole deposit, about 2,900 (16%) were called active. 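Calls are made per well; low scores hint the gene aids the LPS response, high scores that it dampens it.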 Entries without a mark were called inactive. Repeated entries: four replicate wells of each siRNA pool.

Against ROCK2 (Rho associated coiled-coil containing protein kinase 2), the values are TNF reporter robust z-score 0.81.
Against ROCK2 (Rho associated coiled-coil containing protein kinase 2) the deposit lists TNF reporter robust z-score 0.47.
Against ROCK2 (Rho associated coiled-coil containing protein kinase 2), the values are TNF reporter robust z-score -1.26.
For ROCK2 (Rho associated coiled-coil containing protein kinase 2), the entry reads TNF reporter robust z-score -0.7.
For DNAJB3P (DnaJ heat shock protein family (Hsp40) member B3, pseudogene), the entry reads TNF reporter robust z-score 1.42.
Depletion of DNAJB3P (DnaJ heat shock protein family (Hsp40) member B3, pseudogene) came out at: TNF reporter robust z-score 0.36.
Silencing of DNAJB3P (DnaJ heat shock protein family (Hsp40) member B3, pseudogene) gave: TNF reporter robust z-score 1.52.
DNAJB3P (DnaJ heat shock protein family (Hsp40) member B3, pseudogene) showed TNF reporter robust z-score 0.57.
PIH1D1 (PIH1 domain containing 1) gave TNF reporter robust z-score -0.39.
For PIH1D1 (PIH1 domain containing 1), the entry reads TNF reporter robust z-score -0.26.
Depletion of PIH1D1 (PIH1 domain containing 1) gave: TNF reporter robust z-score -1.13.
Against PIH1D1 (PIH1 domain containing 1), the values are TNF reporter robust z-score 0.25.
IRF3 (interferon regulatory factor 3) showed TNF reporter robust z-score 0.8.
Knock-down of IRF3 (interferon regulatory factor 3) came out at: TNF reporter robust z-score 1.12.
Knock-down of IRF3 (interferon regulatory factor 3) resulted in: TNF reporter robust z-score 1.81.
IRF3 (interferon regulatory factor 3) showed TNF reporter robust z-score 0.35.
Depletion of NMRAL1 (NmrA like redox sensor 1) gave: TNF reporter robust z-score 0.
Depletion of NMRAL1 (NmrA like redox sensor 1) came out at: TNF reporter robust z-score 0.67.
After knock-down of NMRAL1 (NmrA like redox sensor 1), the screen gave TNF reporter robust z-score -1.21.
NMRAL1 (NmrA like redox sensor 1) showed TNF reporter robust z-score -1.15.

3 consecutive reagents from above, for reference:
DNAJB3P (DnaJ heat shock protein family (Hsp40) member B3, pseudogene) — TNF reporter robust z-score: 0.36
DNAJB3P (DnaJ heat shock protein family (Hsp40) member B3, pseudogene) — TNF reporter robust z-score: 1.52
DNAJB3P (DnaJ heat shock protein family (Hsp40) member B3, pseudogene) — TNF reporter robust z-score: 0.57
